Measurements as given in article PMC3741180, “A Novel High Throughput Biochemical Assay to Evaluate the HuR Protein-RNA Complex Formation” (PLoS ONE, 2013).

Protein sequences, listed by entry. Tags and fused reporters are not part of them.
UniProt Q15717, whole entry: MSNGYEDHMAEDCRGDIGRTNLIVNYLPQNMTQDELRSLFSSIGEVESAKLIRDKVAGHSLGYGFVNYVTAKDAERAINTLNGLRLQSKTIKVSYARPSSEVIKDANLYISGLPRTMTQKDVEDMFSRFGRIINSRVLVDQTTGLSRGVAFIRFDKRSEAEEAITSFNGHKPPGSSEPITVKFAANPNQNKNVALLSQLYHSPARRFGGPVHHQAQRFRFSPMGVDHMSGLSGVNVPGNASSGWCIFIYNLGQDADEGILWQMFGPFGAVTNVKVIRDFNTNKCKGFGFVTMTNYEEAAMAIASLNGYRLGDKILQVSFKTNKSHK

Experiments:
[1] = molecular target: rHuR (HuR-Myc-His) (Homo sapiens) (UniProt Q15717); assay: EMSA; conditions: 0.2 uM rHuR, 0.5 uM probe, complex influenced by mitoxantrone and cetylpyridinium chloride (0.5 uM), AlphaScreen: 25 mM HEPES pH 7.4, 100 mM NaCl, 0.1% BSA, room temperature, REMSA: 20 mM HEPES pH 7.5, 50 mM KCl, 0.5 ug BSA, 0.25% glycerol, recombinant protein, residues 1-326, protein details: C-terminal c-Myc and His6, label: 5'-biotin
[2] = molecular target: P-rHuR (phosphorylated rHuR) (Homo sapiens) (UniProt Q15717); assay: AlphaScreen saturation binding; conditions: CsA-induced phosphorylation, not different from rHuR (P=0.59), AlphaScreen: 25 mM HEPES pH 7.4, 100 mM NaCl, 0.1% BSA, room temperature, REMSA: 20 mM HEPES pH 7.5, 50 mM KCl, 0.5 ug BSA, 0.25% glycerol, recombinant protein, residues 1-326, protein details: C-terminal c-Myc and His6, label: 5'-biotin

## AUUAUUUAUUAUUUAUUUAUUAUUUA [Bi-TNF]
[1]
  binding result: binds
[2]
  Kd: 3.1 nM

The exact form of at least one protein or probe is not confirmed. For some assays here: At least one verdict was read from the data and is not stated in words by the source.
